Positions count from the first letter of the chain named. Construct, isoform or probe ends are uncertain for at least one entry. For some of these results: No signal at the amounts used counts as a negative. Where a protein sequence is shown, tags need not be part of it. For some of these results: The comparison behind a weaker result is the experiment's own reference, which may not be listed here. For some of these results: At least one verdict rests on a figure or table, not on a statement of the authors.
Tests used:
[1] = target: T1, SPO-11 (Caenorhabditis elegans) (UniProt Q22236); experiment: EMSA; settings: EMSA: 42.5 mM Tris-HCl pH 7.5, 115 mM KCl, 1 mM DTT, 0.1 mg/ml BSA, 3% glycerol, 0.15 mM EDTA, 20 C, 300 nM DNA (10 nM plasmid), agarose gel, recombinant protein
T1 sequence (looked up, limits assumed): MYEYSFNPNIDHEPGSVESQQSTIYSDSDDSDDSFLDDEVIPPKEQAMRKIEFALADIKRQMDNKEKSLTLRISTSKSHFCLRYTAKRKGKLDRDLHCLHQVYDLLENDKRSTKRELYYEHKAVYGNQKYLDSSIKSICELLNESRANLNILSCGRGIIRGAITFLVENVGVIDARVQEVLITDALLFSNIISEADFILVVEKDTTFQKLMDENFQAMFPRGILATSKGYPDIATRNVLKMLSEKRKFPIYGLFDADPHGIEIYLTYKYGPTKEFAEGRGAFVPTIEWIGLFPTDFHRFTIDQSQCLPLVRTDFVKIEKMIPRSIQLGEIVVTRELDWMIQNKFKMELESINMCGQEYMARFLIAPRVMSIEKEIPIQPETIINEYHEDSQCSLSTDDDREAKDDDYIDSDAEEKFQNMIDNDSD

[2] = target: T2, SPO-11 E202A (Caenorhabditis elegans) (UniProt Q22236); experiment: EMSA; settings: Mg2+ has no effect; EMSA: 42.5 mM Tris-HCl pH 7.5, 115 mM KCl, 1 mM DTT, 0.1 mg/ml BSA, 3% glycerol, 0.15 mM EDTA, 20 C, 30 min, 300 nM DNA (10 nM plasmid), agarose gel; recombinant protein
T2 sequence (looked up, limits assumed): T1 sequence (looked up, limits assumed) with E202A

[3] = target: T3, SPO-11 E202A/D255A (Caenorhabditis elegans) (UniProt Q22236); experiment: EMSA; settings: Mg2+ has no effect; EMSA: 42.5 mM Tris-HCl pH 7.5, 115 mM KCl, 1 mM DTT, 0.1 mg/ml BSA, 3% glycerol, 0.15 mM EDTA, 20 C, 30 min, 300 nM DNA (10 nM plasmid), agarose gel; recombinant protein
T3 sequence (looked up, limits assumed): T1 sequence (looked up, limits assumed) with E202A, D255A

[4] = target: T1, SPO-11 (Caenorhabditis elegans); experiment: competition with a labelled probe; settings: 1-10x unlabeled vs N4; EMSA: 42.5 mM Tris-HCl pH 7.5, 115 mM KCl, 1 mM DTT, 0.1 mg/ml BSA, 3% glycerol, 0.15 mM EDTA, 20 C, 30 min, 300 nM DNA (10 nM plasmid), agarose gel; recombinant protein; single-stranded DNA
[5] = minimal binding at 4.8 uM SPO-11, 30 min, single-stranded DNA

Row | Sequence | binding result ([1]; SPO-11 pretreated above 30 C for 30 min) | binding result ([1]; with Mg2+, little or no effect of Mg2+, 30 min) | binding result [2] | binding result [3] | binding result [4] | binding result [1, 5]
1 | AATATGATAGATAATGATAGTGATGAGGGACGTGGATCTCTTCTTACCTGCGGAGACGTCGAGGAGAACCCAGGACCAGGGGTACCTATGGCCTCCTCCG (double strand) [100 bp dsDNA] | no binding | binds | binds | binds | – | –
2 | TAAATAAGATAAGGATAATACAAAATAAGTAAATGAATAAACAGAGAAAATAAAGTAAAGGATATAAAAAATGAACATAA [80-mer ssDNA bottom strand (Oligo 2)] | – | – | – | – | binds more weakly | binds more weakly
3 | TTATGTTCATTTTTTATATCCTTTACTTTATTTTCTCTGTTTATTCATTTACTTATTTTGTATTATCCTTATCTTATTTA [80-mer ssDNA top strand (Oligo 1)] | – | – | – | – | binds more weakly | binds more weakly
4 | TTTTTTTTTTTTTTTTTTTTTTTTTTTTTTTTTTTTTTTTTTTTTTTTTTTTTTTTTTTTTTTTTTTTTTTTTTTTTTTT [80-mer poly-dT] | – | – | – | – | binds more weakly | binds more weakly

Reference: PMC5443798, “Functional characterization of the meiosis-specific DNA double-strand break inducing factor SPO-11 from C. elegans”
